# Reference: US11426406B2, “Compositions and methods for treating lysosomal storage disorders” (GEORGETOWN UNIVERSITY, priority 2017, dated 2022)
# At least one compound was matched to its structure with a doubt left.
# Key:
# Type in all cases: in vivo
# [1] = test system: male Sgsh transgenic mice (MPS); experiment: Open-field anxiety test in MPS mice (Sanfilippo A model); conditions: daily I.P. 21 days, nilotinib 10 mg/kg, bosutinib 5 mg/kg, 5 minute trial, FIG. 2C
# [2] = test system: male Sgsh transgenic mice (MPS); experiment: Open-field locomotion test in MPS mice (Sanfilippo A model); conditions: daily I.P. 21 days, nilotinib 10 mg/kg, bosutinib 5 mg/kg, FIG. 2C
# Protocol: (§1) Twelve 8-9 month old, male Sgsh transgenic mice (MPS) were used for all experiments and were compared to fourteen non-transgenic age-matched, littermates (non-TG). […] Treatment lasted for 21 days. At the end of the treatment period the mice underwent behavioral testing again and Western blot analysis was performed.
# Open-field Locomotion: Mice were placed in the open field arena for 60 minutes. Animals were tracked by photocell beams along the arena floor. Data were collected and analyzed for total locomotion via total cm travelled. Other data collected were the total time spent moving ‘total ambulatory time’ (sec) during the 60 minute trial and the average velocity (cm/sec) during the 60 minute trial.
# (§2) Post-treatment rotarod MPS versus non-TG littermate mice: After the behavioral tests were conducted the symptomatic MPS mice were divided into three groups (n=4). […] There were three control groups made of age matched non-TG littermate controls (n=4, 5) which were treated in the same way. Behavioral tests were repeated and data collected is referred to as “post-treatment.” Since there was no significant difference between the control non-TG treatment groups, they were combined into one non-TG control group.
# [3] = test system: male Sgsh transgenic mice (MPS); experiment: Post-treatment rotarod test in MPS mice (Sanfilippo A model); conditions: daily I.P. 21 days, nilotinib 10 mg/kg, bosutinib 5 mg/kg, vs DMSO and non-TG controls, FIG. 3
# Protocol: as §1
# Rotarod: Mice were placed on the rotarod apparatus which sped up to 50 rpm, over the course of 5 minutes for 3-5 trials, with a minimum of 30 minutes rest between trials. Data collected were the time the animal remained ambulatory on the rotating rod, in seconds, labelled “latency to fall.” Data is also presented as “percentage difference” where all groups are normalized to the non-transgenic, untreated group, assuming non-transgenic, untreated animals are preforming at 100%.
# as §2
# LAMP2 = experiment: Western blot of LAMP2 (lysosome marker) in tissues of treated MPS mice; conditions: daily I.P. 21 days, vs DMSO, p<0.05, n=4, T-test, FIG. 4a, 4b
# heparan sulfate = experiment: Western blot of heparan sulfate in tissues of treated MPS mice; conditions: daily I.P. 21 days, vs DMSO
smiles,measurement,setting,value
COc1cc(Nc2c(C#N)cnc3cc(OCCCN4CCN(C)CC4)c(OC)cc23)c(Cl)cc1Cl [bosutinib],"anxiety (entries into center zone), open field",[1],"reduced anxiety (more entries into center zone, p<0.05)"
same,"overall locomotion activity, open field",[2],increased the overall locomotion (p<0.05) activity
same,"rotarod performance (latency to fall), post-treatment",[3],nilotinib perform better than the MPS mice treated with DMSO or bosutinib
same,LAMP2 in the brain (densitometry of Western blots),LAMP2,significantly increased
same,"heparan sulfate in brain, heart and liver (Western blot)","heparan sulfate; nilotinib 10 mg/kg, bosutinib 5 mg/kg, FIG. 4a",can rescue the ability to clear heparan sulfate both centrally in the brain and peripherally in the heart and the liver
same,heparan sulfate in the brain (densitometry of Western blots),"heparan sulfate; p<0.05, n=4, T-test, FIG. 4b",significantly reduced
